Measured values from article PMC4451736.
Results are given in words; binding and its absence hold for the method and conditions named. Binding calls can cover weak binding; strength is not graded here.

B1: ARF5 (effector in protoplasts) (protein, UniProt P93024 1-902)
chain: MMASLSCVEDKMKTSCLVNGGGTITTTTSQSTLLEEMKLLKDQSGTRKPVINSELWHACAGPLVCLPQVGSLVYYFSQGHSEQVAVSTRRSATTQVPNYPNLPSQLMCQVHNVTLHADKDSDEIYAQMSLQPVHSERDVFPVPDFGMLRGSKHPTEFFCKTLTASDTSTHGGFSVPRRAAEKLFPPLDYSAQPPTQELVVRDLHENTWTFRHIYRGQPKRHLLTTGWSLFVGSKRLRAGDSVLFIRDEKSQLMVGVRRANRQQTALPSSVLSADSMHIGVLAAAAHATANRTPFLIFYNPRACPAEFVIPLAKYRKAICGSQLSVGMRFGMMFETEDSGKRRYMGTIVGISDLDPLRWPGSKWRNLQVEWDEPGCNDKPTRVSPWDIETPESLFIFPSLTSGLKRQLHPSYFAGETEWGSLIKRPLIRVPDSANGIMPYASFPSMASEQLMKMMMRPHNNQNVPSFMSEMQQNIVMGNGGLLGDMKMQQPLMMNQKSEMVQPQNKLTVNPSASNTSGQEQNLSQSMSAPAKPENSTLSGCSSGRVQHGLEQSMEQASQVTTSTVCNEEKVNQLLQKPGASSPVQADQCLDITHQIYQPQSDPINGFSFLETDELTSQVSSFQSLAGSYKQPFILSSQDSSAVVLPDSTNSPLFHDVWDTQLNGLKFDQFSPLMQQDLYASQNICMSNSTTSNILDPPLSNTVLDDFCAIKDTDFQNHPSGCLVGNNNTSFAQDVQSQITSASFADSQAFSRQDFPDNSGGTGTSSSNVDFDDCSLRQNSKGSSWQKIATPRVRTYTKVQKTGSVGRSIDVTSFKDYEELKSAIECMFGLEGLLTHPQSSGWKLVYVDYESDVLLVGDDPWEEFVGCVRCIRILSPTEVQQMSEEGMKLLNSAGINDLKTSVS
B2: ARF6 (effector in protoplasts) (protein, UniProt Q9ZTX8 1-935)
chain: MRLSSAGFNPQPHEVTGEKRVLNSELWHACAGPLVSLPPVGSRVVYFPQGHSEQVAASTNKEVDAHIPNYPSLHPQLICQLHNVTMHADVETDEVYAQMTLQPLNAQEQKDPYLPAELGVPSRQPTNYFCKTLTASDTSTHGGFSVPRRAAEKVFPPLDYSQQPPAQELMARDLHDNEWKFRHIFRGQPKRHLLTTGWSVFVSAKRLVAGDSVLFIWNDKNQLLLGIRRANRPQTVMPSSVLSSDSMHLGLLAAAAHAAATNSRFTIFYNPRASPSEFVIPLAKYVKAVYHTRVSVGMRFRMLFETEESSVRRYMGTITGICDLDPTRWANSHWRSVKVGWDESTAGERQPRVSLWEIEPLTTFPMYPSPFPLRLKRPWPPGLPSFHGLKEDDMGMSMSSPLMWDRGLQSLNFQGMGVNPWMQPRLDTSGLLGMQNDVYQAMAAAALQDMRGIDPAKAAASLLQFQNSPGFSMQSPSLVQPQMLQQQLSQQQQQLSQQQQQQQQLSQQQQQQLSQQQQQQLSQQQQQQLSQQQQQQAYLGVPETHQPQSQAQSQSNNHLSQQQQQVVDNHNPSASSAAVVSAMSQFGSASQPNTSPLQSMTSLCHQQSFSDTNGGNNPISPLHTLLSNFSQDESSQLLHLTRTNSAMTSSGWPSKRPAVDSSFQHSGAGNNNTQSVLEQLGQSHTSNVPPNAVSLPPFPGGRECSIEQEGSASDPHSHLLFGVNIDSSSLLMPNGMSNLRSIGIEGGDSTTLPFTSSNFNNDFSGNLAMTTPSSCIDESGFLQSSENLGSENPQSNTFVKVYKSGSFGRSLDISKFSSYHELRSELARMFGLEGQLEDPVRSGWQLVFVDRENDVLLLGDDPWPEFVSSVWCIKILSPQEVQQMGKRGLELLNSAPSSNNVDKLPSNGNCDDFGNRSDPRNLGNGIASVGGSFNY
B3: ARF8 (effector in protoplasts) (protein, UniProt Q9FGV1 1-811)
chain: MKLSTSGLGQQGHEGEKCLNSELWHACAGPLVSLPSSGSRVVYFPQGHSEQVAATTNKEVDGHIPNYPSLPPQLICQLHNVTMHADVETDEVYAQMTLQPLTPEEQKETFVPIELGIPSKQPSNYFCKTLTASDTSTHGGFSVPRRAAEKVFPPLDYTLQPPAQELIARDLHDVEWKFRHIFRGQPKRHLLTTGWSVFVSAKRLVAGDSVIFIRNEKNQLFLGIRHATRPQTIVPSSVLSSDSMHIGLLAAAAHASATNSCFTVFFHPRASQSEFVIQLSKYIKAVFHTRISVGMRFRMLFETEESSVRRYMGTITGISDLDSVRWPNSHWRSVKVGWDESTAGERQPRVSLWEIEPLTTFPMYPSLFPLRLKRPWHAGTSSLPDGRGDLGSGLTWLRGGGGEQQGLLPLNYPSVGLFPWMQQRLDLSQMGTDNNQQYQAMLAAGLQNIGGGDPLRQQFVQLQEPHHQYLQQSASHNSDLMLQQQQQQQASRHLMHAQTQIMSENLPQQNMRQEVSNQPAGQQQQLQQPDQNAYLNAFKMQNGHLQQWQQQSEMPSPSFMKSDFTDSSNKFATTASPASGDGNLLNFSITGQSVLPEQLTTEGWSPKASNTFSEPLSLPQAYPGKSLALEPGNPQNPSLFGVDPDSGLFLPSTVPRFASSSGDAEASPMSLTDSGFQNSLYSCMQDTTHELLHGAGQINSSNQTKNFVKVYKSGSVGRSLDISRFSSYHELREELGKMFAIEGLLEDPLRSGWQLVFVDKENDILLLGDDPWESFVNNVWYIKILSPEDVHQMGDHGEGSGGLFPQNPTHL
B4: ARF19 (effector in protoplasts) (protein, UniProt Q8RYC8 1-1086)
chain: MKAPSNGFLPSSNEGEKKPINSQLWHACAGPLVSLPPVGSLVVYFPQGHSEQVAASMQKQTDFIPNYPNLPSKLICLLHSVTLHADTETDEVYAQMTLQPVNKYDREALLASDMGLKLNRQPTEFFCKTLTASDTSTHGGFSVPRRAAEKIFPPLDFSMQPPAQEIVAKDLHDTTWTFRHIYRGQPKRHLLTTGWSVFVSTKRLFAGDSVLFVRDEKSQLMLGIRRANRQTPTLSSSVISSDSMHIGILAAAAHANANSSPFTIFFNPRASPSEFVVPLAKYNKALYAQVSLGMRFRMMFETEDCGVRRYMGTVTGISDLDPVRWKGSQWRNLQVGWDESTAGDRPSRVSIWEIEPVITPFYICPPPFFRPKYPRQPGMPDDELDMENAFKRAMPWMGEDFGMKDAQSSMFPGLSLVQWMSMQQNNPLSGSATPQLPSALSSFNLPNNFASNDPSKLLNFQSPNLSSANSQFNKPNTVNHISQQMQAQPAMVKSQQQQQQQQQQHQHQQQQLQQQQQLQMSQQQVQQQGIYNNGTIAVANQVSCQSPNQPTGFSQSQLQQQSMLPTGAKMTHQNINSMGNKGLSQMTSFAQEMQFQQQLEMHNSSQLLRNQQEQSSLHSLQQNLSQNPQQLQMQQQSSKPSPSQQLQLQLLQKLQQQQQQQSIPPVSSSLQPQLSALQQTQSHQLQQLLSSQNQQPLAHGNNSFPASTFMQPPQIQVSPQQQGQMSNKNLVAAGRSHSGHTDGEAPSCSTSPSANNTGHDNVSPTNFLSRNQQQGQAASVSASDSVFERASNPVQELYTKTESRISQGMMNMKSAGEHFRFKSAVTDQIDVSTAGTTYCPDVVGPVQQQQTFPLPSFGFDGDCQSHHPRNNLAFPGNLEAVTSDPLYSQKDFQNLVPNYGNTPRDIETELSSAAISSQSFGIPSIPFKPGCSNEVGGINDSGIMNGGGLWPNQTQRMRTYTKVQKRGSVGRSIDVTRYSGYDELRHDLARMFGIEGQLEDPLTSDWKLVYTDHENDILLVGDDPWEEFVNCVQNIKILSSVEVQQMSLDGDLAAIPTTNQACSETDSGNAWKVHYEDTSAAASFNR

What was measured:
[1] = molecular target: T1, ARF5CTD (residues 767-901 of ARF5, bait in pDHB1) (Arabidopsis) (UniProt P93024); experiment: two-hybrid; split-ubiquitin system in yeast NMY51; ARF5CTD in bait vector pDHB1, PtrIAA14.1 in prey vector pPR3-N; growth on SD-trp-leu-his; empty bait and empty prey as controls
T1 sequence: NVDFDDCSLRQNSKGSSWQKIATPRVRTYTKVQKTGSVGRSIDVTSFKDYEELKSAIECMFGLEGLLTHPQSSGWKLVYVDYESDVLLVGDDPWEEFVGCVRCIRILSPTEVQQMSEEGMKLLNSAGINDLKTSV

[2] = molecular target: GD-PtrIAA14.1CTD (residues 131-248 of PtrIAA14.1 fused to the GAL4 DNA binding domain) (Populus trichocarpa); experiment: two-hybrid; Arabidopsis protoplast transfection; GD-PtrIAA14.1CTD cotransfected with ARF activators and the Gal4:GUS reporter; GUS activity after 20-22 h; CAT as control

| Molecule | binding [1] | binding [2] |
| --- | --- | --- |
| PtrIAA14.1 (full-length, prey in pPR3-N) (Populus trichocarpa) | binds | – |
| B1 | – | binds |
| B2 | – | no binding |
| B3 | – | no binding |
| B4 | – | no binding |
